Laboratory results: the supplement of paper PMC10849652
This is one part of the list.

Sequences of proteins named here, by UniProt entry; tags and fusion partners are left off. A change or cut given only in a name is not applied to a line headed by its entry.
UniProt P21675, whole entry, looked up: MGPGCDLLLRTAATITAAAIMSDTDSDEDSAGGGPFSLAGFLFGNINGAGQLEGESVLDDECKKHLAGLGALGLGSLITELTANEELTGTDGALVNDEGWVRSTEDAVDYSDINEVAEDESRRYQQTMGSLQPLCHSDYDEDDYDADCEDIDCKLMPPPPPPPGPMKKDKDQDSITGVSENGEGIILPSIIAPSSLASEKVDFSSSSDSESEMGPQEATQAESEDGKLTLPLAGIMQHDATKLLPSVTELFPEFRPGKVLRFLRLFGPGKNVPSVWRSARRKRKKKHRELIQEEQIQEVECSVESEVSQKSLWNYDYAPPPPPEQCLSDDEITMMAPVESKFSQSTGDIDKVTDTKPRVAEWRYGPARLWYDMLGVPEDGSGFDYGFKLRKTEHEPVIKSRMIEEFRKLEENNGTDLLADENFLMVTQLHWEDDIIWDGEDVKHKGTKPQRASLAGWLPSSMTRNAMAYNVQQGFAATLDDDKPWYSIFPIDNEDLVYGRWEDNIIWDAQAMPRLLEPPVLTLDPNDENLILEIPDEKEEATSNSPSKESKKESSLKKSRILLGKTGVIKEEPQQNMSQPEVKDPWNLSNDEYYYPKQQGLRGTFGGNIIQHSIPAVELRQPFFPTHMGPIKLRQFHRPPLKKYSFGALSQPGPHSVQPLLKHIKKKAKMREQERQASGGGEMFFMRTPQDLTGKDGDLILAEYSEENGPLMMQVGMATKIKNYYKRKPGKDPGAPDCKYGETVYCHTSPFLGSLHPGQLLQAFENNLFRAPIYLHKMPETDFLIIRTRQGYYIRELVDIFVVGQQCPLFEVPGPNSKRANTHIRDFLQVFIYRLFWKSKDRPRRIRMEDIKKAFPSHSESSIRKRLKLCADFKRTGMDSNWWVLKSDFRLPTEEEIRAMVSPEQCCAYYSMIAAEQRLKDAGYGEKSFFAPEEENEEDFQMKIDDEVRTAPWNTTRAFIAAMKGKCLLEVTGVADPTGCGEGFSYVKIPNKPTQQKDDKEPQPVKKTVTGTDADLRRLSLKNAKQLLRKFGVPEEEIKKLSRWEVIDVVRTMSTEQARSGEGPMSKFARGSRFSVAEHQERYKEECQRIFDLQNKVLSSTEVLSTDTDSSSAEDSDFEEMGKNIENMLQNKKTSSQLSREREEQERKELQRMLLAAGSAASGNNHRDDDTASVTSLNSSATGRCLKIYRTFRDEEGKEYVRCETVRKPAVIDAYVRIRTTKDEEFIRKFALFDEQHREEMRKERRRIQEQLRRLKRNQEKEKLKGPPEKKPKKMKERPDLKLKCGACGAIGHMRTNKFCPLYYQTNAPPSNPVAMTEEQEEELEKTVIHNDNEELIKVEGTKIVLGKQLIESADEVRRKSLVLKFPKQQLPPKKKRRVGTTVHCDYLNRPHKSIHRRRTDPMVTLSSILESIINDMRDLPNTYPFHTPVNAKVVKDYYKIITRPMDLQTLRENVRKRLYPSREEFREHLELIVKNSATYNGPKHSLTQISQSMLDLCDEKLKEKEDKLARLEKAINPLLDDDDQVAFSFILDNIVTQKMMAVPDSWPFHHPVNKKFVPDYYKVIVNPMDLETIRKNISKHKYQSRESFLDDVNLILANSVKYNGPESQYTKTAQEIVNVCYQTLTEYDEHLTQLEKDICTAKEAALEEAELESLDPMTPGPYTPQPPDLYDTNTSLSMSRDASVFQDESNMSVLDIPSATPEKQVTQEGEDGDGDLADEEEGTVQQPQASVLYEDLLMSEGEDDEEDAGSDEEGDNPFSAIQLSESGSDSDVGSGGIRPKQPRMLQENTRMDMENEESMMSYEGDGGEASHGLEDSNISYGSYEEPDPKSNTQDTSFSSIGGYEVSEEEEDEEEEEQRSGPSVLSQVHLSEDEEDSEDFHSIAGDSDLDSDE
UniProt O15260: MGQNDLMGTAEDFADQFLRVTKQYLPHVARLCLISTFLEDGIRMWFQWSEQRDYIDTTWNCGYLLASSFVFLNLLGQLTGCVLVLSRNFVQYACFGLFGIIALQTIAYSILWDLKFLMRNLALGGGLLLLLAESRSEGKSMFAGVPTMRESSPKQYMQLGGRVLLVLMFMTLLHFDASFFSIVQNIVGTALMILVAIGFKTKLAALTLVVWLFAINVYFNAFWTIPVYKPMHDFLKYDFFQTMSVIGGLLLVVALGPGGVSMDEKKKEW
UniProt Q9UH99: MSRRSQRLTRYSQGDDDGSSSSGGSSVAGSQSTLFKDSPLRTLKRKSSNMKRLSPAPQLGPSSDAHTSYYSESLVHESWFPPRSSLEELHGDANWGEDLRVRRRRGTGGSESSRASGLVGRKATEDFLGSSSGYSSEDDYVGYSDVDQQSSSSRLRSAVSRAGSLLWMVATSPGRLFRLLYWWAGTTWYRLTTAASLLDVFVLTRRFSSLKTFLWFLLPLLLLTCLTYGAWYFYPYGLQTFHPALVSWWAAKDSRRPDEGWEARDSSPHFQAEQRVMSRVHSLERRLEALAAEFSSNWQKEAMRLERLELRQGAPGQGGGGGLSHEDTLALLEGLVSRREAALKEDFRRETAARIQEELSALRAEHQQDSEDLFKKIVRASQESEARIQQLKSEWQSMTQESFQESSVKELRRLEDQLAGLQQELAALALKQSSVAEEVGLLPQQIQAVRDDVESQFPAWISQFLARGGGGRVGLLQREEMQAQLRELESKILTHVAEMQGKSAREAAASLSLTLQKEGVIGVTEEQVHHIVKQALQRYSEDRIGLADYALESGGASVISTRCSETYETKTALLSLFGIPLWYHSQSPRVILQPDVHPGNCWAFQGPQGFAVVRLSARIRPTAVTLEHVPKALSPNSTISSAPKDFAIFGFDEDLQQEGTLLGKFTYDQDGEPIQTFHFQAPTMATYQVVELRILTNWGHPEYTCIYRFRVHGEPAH
UniProt Q8N300: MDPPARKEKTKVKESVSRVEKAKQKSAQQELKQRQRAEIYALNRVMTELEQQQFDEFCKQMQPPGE
UniProt Q8N5C8: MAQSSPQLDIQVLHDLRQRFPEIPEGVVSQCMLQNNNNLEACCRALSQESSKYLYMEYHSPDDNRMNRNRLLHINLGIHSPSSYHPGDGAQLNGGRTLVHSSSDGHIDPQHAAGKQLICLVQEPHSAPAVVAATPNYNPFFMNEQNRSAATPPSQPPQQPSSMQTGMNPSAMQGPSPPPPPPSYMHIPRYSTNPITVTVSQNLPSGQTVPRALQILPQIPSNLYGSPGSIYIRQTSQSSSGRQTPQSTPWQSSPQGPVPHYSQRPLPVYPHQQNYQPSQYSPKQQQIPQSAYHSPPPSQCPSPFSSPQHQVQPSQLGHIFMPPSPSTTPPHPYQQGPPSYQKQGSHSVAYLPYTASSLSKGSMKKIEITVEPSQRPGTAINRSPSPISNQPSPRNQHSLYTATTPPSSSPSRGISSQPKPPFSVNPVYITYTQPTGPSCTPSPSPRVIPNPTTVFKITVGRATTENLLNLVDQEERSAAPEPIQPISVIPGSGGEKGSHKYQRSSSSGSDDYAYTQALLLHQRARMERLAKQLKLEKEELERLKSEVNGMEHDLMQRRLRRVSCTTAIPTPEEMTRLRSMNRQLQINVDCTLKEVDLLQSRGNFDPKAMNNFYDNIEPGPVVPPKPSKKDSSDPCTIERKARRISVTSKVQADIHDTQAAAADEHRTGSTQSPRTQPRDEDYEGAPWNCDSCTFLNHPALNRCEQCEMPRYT
UniProt Q15542, whole entry, looked up: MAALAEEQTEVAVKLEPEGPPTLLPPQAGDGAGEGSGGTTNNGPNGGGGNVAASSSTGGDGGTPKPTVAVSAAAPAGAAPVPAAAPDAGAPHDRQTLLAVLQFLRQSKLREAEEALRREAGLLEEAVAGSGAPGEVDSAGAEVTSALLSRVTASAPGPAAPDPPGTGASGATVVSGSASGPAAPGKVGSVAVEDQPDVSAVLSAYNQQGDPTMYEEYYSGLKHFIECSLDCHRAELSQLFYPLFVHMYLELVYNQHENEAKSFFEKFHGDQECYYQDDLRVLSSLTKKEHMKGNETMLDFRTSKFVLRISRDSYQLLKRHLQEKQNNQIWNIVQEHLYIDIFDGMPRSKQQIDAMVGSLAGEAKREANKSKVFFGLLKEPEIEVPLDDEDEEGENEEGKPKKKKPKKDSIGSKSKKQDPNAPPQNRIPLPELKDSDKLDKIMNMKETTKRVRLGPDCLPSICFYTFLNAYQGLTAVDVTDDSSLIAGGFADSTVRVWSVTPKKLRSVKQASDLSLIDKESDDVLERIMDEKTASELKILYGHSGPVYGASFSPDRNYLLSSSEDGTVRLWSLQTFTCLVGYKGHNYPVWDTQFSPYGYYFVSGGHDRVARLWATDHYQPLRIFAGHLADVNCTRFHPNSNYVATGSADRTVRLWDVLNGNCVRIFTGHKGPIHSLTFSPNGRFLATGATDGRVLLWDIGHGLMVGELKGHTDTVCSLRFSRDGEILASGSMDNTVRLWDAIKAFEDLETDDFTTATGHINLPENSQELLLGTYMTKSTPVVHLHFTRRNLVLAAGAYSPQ
UniProt O43759: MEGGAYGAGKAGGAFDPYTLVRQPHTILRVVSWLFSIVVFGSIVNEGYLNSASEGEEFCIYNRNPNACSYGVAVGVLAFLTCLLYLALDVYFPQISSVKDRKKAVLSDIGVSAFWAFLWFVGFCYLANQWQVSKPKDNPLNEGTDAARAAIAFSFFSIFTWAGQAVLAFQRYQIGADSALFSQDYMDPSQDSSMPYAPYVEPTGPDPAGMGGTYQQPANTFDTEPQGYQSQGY
UniProt O15056: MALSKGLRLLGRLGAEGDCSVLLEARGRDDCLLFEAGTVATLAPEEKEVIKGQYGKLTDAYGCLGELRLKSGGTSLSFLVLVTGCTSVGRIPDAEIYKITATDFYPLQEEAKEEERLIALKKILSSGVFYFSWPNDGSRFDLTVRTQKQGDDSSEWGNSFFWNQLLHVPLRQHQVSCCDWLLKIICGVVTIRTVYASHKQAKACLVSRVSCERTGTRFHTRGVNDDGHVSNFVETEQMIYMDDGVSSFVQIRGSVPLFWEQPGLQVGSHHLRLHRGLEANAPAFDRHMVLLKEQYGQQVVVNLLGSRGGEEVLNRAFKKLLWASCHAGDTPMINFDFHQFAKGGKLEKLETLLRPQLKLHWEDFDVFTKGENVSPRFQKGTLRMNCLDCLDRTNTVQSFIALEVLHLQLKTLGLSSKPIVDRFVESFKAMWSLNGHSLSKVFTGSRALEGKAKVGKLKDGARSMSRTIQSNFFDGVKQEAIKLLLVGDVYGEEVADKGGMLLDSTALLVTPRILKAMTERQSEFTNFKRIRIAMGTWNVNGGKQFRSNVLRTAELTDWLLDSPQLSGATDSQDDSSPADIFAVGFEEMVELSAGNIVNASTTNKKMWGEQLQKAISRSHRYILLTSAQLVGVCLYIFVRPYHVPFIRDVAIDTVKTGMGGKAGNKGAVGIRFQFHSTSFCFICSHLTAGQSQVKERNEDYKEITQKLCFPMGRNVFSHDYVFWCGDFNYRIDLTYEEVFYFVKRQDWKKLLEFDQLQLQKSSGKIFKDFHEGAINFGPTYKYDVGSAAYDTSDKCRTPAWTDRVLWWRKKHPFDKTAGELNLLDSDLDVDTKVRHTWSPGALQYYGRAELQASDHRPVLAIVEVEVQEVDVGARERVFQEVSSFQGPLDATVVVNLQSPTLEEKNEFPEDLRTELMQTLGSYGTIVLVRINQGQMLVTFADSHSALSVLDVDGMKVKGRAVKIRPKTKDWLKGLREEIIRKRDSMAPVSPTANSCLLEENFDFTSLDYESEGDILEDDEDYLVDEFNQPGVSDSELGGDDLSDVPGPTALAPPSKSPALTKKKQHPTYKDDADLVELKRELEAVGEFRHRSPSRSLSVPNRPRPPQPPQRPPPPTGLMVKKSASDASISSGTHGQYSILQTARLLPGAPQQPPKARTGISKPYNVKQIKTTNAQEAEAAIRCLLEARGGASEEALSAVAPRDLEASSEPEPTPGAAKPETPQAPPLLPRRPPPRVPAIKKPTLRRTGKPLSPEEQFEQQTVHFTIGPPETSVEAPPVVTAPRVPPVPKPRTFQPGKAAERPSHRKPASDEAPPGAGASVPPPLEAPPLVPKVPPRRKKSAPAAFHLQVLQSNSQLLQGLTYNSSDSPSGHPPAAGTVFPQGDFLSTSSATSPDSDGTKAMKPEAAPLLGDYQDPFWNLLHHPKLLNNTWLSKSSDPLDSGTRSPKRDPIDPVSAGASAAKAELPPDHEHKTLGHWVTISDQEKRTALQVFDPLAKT
UniProt Q15543, whole entry, looked up: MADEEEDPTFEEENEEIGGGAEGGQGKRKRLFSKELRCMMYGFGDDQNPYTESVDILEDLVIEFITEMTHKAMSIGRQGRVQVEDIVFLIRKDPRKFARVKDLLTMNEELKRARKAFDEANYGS

Experiments:
Assay in all cases: log2 fold change, soluble protein after heating vs DMSO (PISA); higher = thermal stabilisation; K562 lysate, 10 uM; active = over 0.2 and 3.5 SD of the protein, either way, in both replicates (recomputed)
alvocidib = compound: CN1CC[C@H](c2c(O)cc(O)c3c(=O)cc(-c4ccccc4Cl)oc23)[C@H](O)C1 [alvocidib]
Procedure, shortened: (§1)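 To prepare the extract, K562 pellets were dounce-homogenised in PBS pH 7.4 with 1 mM MgCl2, giving crude material at 1 mg/mL protein. This was treated with 10 μM compound for 30 min, then heated in aliquots for 3 min over 48°C-58°C before pooling and addition of NP-40 to 0.5% at 4°C. Centrifugation at 21,000xg for 90 min left soluble protein in the supernatant, which TMTpro 16plex LC-MS/MS quantified with equalised channel sums. Results are log-two fold changes in thermal stability compared with solvent controls, from duplicates.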

Tubastatin A = compound: CN1CCc2c(c3ccccc3n2Cc2ccc(C(=O)NO)cc2)C1 [Tubastatin A]
Procedure, shortened: as §1

[1] = compound: CNC(=O)C1=CC=CC=C1NC2=NC(=NC=C2Cl)NC3=C(C=C(C=C3)N4CCOCC4)OC
Procedure, shortened: as §1

defactinib = compound: CNC(=O)c1ccc(Nc2ncc(C(F)(F)F)c(NCc3nccnc3N(C)S(C)(=O)=O)n2)cc1 [defactinib]
Procedure, shortened: as §1

[2] = compound: CNc1nc(-c2ccc3c(N)n[nH]c3c2)cc(N2C[C@@H](C(=O)NC3CCCCC3)CC[C@H]2C)n1
Procedure, shortened: as §1

encorafenib = compound: COC(=O)N[C@@H](C)CNc1nccc(-c2cn(C(C)C)nc2-c2cc(Cl)cc(NS(C)(=O)=O)c2F)n1 [encorafenib]
Procedure, shortened: as §1

[3] = compound: COC(=O)[C@H](CCSC)NC(=O)C1=C(C=C(C=C1)NC[C@H](CS)N)C2=CC=CC=C2
Procedure, shortened: as §1

alisertib = compound: COc1cc(Nc2ncc3c(n2)-c2ccc(Cl)cc2C(c2c(F)cccc2OC)=NC3)ccc1C(=O)O [alisertib]
Procedure, shortened: as §1

[4] = compound: COc1cc2nc(-c3cc(F)ccc3O)nc(N[C@@H]3CNC[C@H]3C(C)(C)O)c2cc1OC
Procedure, shortened: as §1

gefitinib = compound: COc1cc2ncnc(Nc3ccc(F)c(Cl)c3)c2cc1OCCCN1CCOCC1 [gefitinib]
Procedure, shortened: as §1

lapatinib = compound: CS(=O)(=O)CCNCc1ccc(-c2ccc3ncnc(Nc4ccc(OCc5cccc(F)c5)c(Cl)c4)c3c2)o1 [lapatinib]
Procedure, shortened: as §1

crizotinib = compound: C[C@@H](Oc1cc(-c2cnn(C3CCNCC3)c2)cnc1N)c1c(Cl)ccc(F)c1Cl [crizotinib]
Procedure, shortened: as §1

[5] = compound: C[C@H](C1=CC=C(C=C1)C(=O)NC2=C3C=CNC3=NC=C2)N
Procedure, shortened: as §1

duvelisib = compound: C[C@H](Nc1ncnc2nc[nH]c12)c1cc2cccc(Cl)c2c(=O)n1-c1ccccc1 [duvelisib]
Procedure, shortened: as §1

gandotinib = compound: Cc1cc(Nc2cc(CN3CCOCC3)c3nc(C)c(Cc4ccc(Cl)cc4F)n3n2)n[nH]1 [gandotinib]
Procedure, shortened: as §1

tozasertib = compound: Cc1cc(Nc2cc(N3CCN(C)CC3)nc(Sc3ccc(NC(=O)C4CC4)cc3)n2)n[nH]1 [tozasertib]
Procedure, shortened: as §1

doramapimod = compound: Cc1ccc(-n2nc(C(C)(C)C)cc2NC(=O)Nc2ccc(OCCN3CCOCC3)c3ccccc23)cc1 [doramapimod]
Procedure, shortened: as §1

[6] = compound: Cc1cccc(CC(=O)N2CCc3c2ccc(-c2cn(C)c4ncnc(N)c24)c3F)n1
Procedure, shortened: as §1

pictilisib = compound: CS(=O)(=O)N1CCN(Cc2cc3nc(-c4cccc5[nH]ncc45)nc(N4CCOCC4)c3s2)CC1 [pictilisib]
Procedure, shortened: as §1

bafetinib = compound: Cc1ccc(NC(=O)c2ccc(CN3CC[C@H](N(C)C)C3)c(C(F)(F)F)c2)cc1Nc1nccc(-c2cncnc2)n1 [bafetinib]
Procedure, shortened: as §1

Measured: log2 fold change

TAF1 isoform 4 (UniProt P21675)
inactive: alvocidib -0.257 | Tubastatin A -0.079 | [1] -0.007 | defactinib -0.051 | [2] -0.034 | encorafenib 0 | [3] 0.133 | alisertib -0.037 | [4] -0.064 | gefitinib -0.04 | lapatinib 0.061 | crizotinib -0.014 | [5] -0.034 | duvelisib 0.002 | gandotinib -0.195 | tozasertib 0.045 | doramapimod 0.033 | [6] 0.416

SUCLA2 (UniProt Q9P2R7)
inactive: alvocidib -0.033 | Tubastatin A -0.036 | [1] 0.008 | defactinib -0.028 | [2] -0.014 | encorafenib -0.026 | [3] 0.102 | alisertib 0.004 | [4] -0.018 | gefitinib 0.023 | lapatinib 0.013 | pictilisib -0.047 | crizotinib -0.053 | [5] -0.13 | duvelisib -0.023 | gandotinib 0.068 | tozasertib 0.006 | doramapimod 0.036 | bafetinib -0.04 | [6] 0.108

SURF4 (UniProt O15260)
inactive: alvocidib -0.089 | Tubastatin A -0.002 | [1] 0.004 | defactinib 0.028 | [2] -0.055 | encorafenib 0.07 | [3] -0.03 | alisertib -0.026 | [4] -0.082 | gefitinib 0.039 | lapatinib -0.063 | pictilisib -0.016 | crizotinib 0.031 | [5] -0.157 | duvelisib 0.029 | gandotinib 0.04 | tozasertib -0.022 | doramapimod 0.024 | bafetinib -0.044 | [6] 0.14

SUN2 isoform 2 (UniProt Q9UH99)
inactive: alvocidib 0.016 | Tubastatin A 0.06 | [1] 0.022 | defactinib 0.023 | [2] 0.008 | encorafenib 0.126 | [3] 0.131 | [4] -0.021 | lapatinib -0.121 | pictilisib -0.035 | crizotinib 0.065 | [5] 0.071 | duvelisib -0.006 | gandotinib -0.19 | tozasertib 0.492 | doramapimod 0.466 | bafetinib -0.099 | [6] -0.14

SUPT4H1 (UniProt P63272)
inactive: alvocidib 0.054 | Tubastatin A -0.009 | [1] 0.04 | defactinib 0.033 | [2] 0.061 | encorafenib -0.009 | [3] -0.101 | alisertib -0.01 | [4] 0.024 | gefitinib 0 | lapatinib -0.04 | pictilisib -0.06 | crizotinib -0.09 | [5] 0.047 | duvelisib 0.004 | gandotinib -0.014 | tozasertib -0.115 | doramapimod -0.05 | bafetinib 0.031 | [6] -0.043

Quoted from the entries so far (two entries):
SURF4 (UniProt O15260)
inactive: alvocidib -0.089 | Tubastatin A -0.002 | [1] 0.004 | defactinib 0.028 | [2] -0.055 | encorafenib 0.07 | [3] -0.03 | alisertib -0.026 | [4] -0.082 | gefitinib 0.039 | lapatinib -0.063 | pictilisib -0.016 | crizotinib 0.031 | [5] -0.157 | duvelisib 0.029 | gandotinib 0.04 | tozasertib -0.022 | doramapimod 0.024 | bafetinib -0.044 | [6] 0.14

SUN2 isoform 2 (UniProt Q9UH99)
inactive: alvocidib 0.016 | Tubastatin A 0.06 | [1] 0.022 | defactinib 0.023 | [2] 0.008 | encorafenib 0.126 | [3] 0.131 | [4] -0.021 | lapatinib -0.121 | pictilisib -0.035 | crizotinib 0.065 | [5] 0.071 | duvelisib -0.006 | gandotinib -0.19 | tozasertib 0.492 | doramapimod 0.466 | bafetinib -0.099 | [6] -0.14

Later entries.

SVBP (UniProt Q8N300)
inactive: alvocidib -0.066 | Tubastatin A 0.043 | [1] -0.011 | encorafenib 0.142 | [3] -0.131 | alisertib 0.001 | gefitinib -0.074 | crizotinib 0.102 | [5] 0.005 | gandotinib 0.024 | tozasertib 0.005 | doramapimod -0.008 | [6] -0.085

TAB3 (UniProt Q8N5C8)
inactive: alvocidib 0.084 | Tubastatin A -0.028 | [1] 0.047 | [2] -0.011 | encorafenib 0.088 | [3] 0.018 | alisertib -0.027 | [4] -0.238 | gefitinib -0.035 | lapatinib -0.037 | pictilisib -0.062 | crizotinib 0.08 | [5] 0.021 | duvelisib 0.059 | gandotinib -0.081 | tozasertib -0.066 | doramapimod -0.113 | bafetinib 0.169 | [6] -0.038

TAF5 (UniProt Q15542)
inactive: alvocidib -0.003 | Tubastatin A 0.086 | [1] 0.05 | defactinib 0.023 | [2] 0.002 | [4] 0.051 | lapatinib -0.162 | pictilisib -0.086 | [5] 0.015 | duvelisib -0.035 | gandotinib -0.194 | bafetinib -0.222 | [6] -0.123

SYNGR1 isoform 2 (UniProt O43759)
inactive: alvocidib 0.04 | Tubastatin A 0.217 | [1] -0.12 | encorafenib -0.127 | [3] 0.168 | pictilisib -0.09 | crizotinib -0.023 | [5] -0.067 | gandotinib -0.037 | tozasertib 0.2 | doramapimod -0.006 | bafetinib 0.04 | [6] -0.077

SYNJ2 (UniProt O15056)
inactive: alvocidib -0.015 | Tubastatin A 0.019 | [1] -0.007 | defactinib -0.055 | [2] 0.025 | encorafenib 0 | [3] 0.241 | alisertib -0.056 | [4] -0.016 | gefitinib -0.021 | lapatinib 0.012 | pictilisib -0.002 | crizotinib -0.051 | [5] 0.057 | duvelisib -0.056 | gandotinib -0.115 | tozasertib -0.022 | doramapimod 0.053 | bafetinib -0.116 | [6] 0.088

TAF13 (UniProt Q15543)
inactive: alvocidib -0.042 | Tubastatin A -0.01 | [1] 0.035 | defactinib -0.041 | alisertib 0.144 | gefitinib 0.086 | [5] -0.057 | gandotinib 0.03 | [6] 0.126

SYNJ2BP-COX16, A0A087WYV9
inactive: alvocidib 0.109 | Tubastatin A 0.059 | [1] -0.077 | defactinib 0.048 | [2] 0.024 | encorafenib -0.036 | [3] -0.043 | alisertib 0.008 | [4] 0.109 | gefitinib -0.065 | lapatinib -0.182 | pictilisib -0.032 | crizotinib 0.021 | [5] 0.124 | duvelisib -0.005 | gandotinib -0.09 | tozasertib -0.055 | doramapimod -0.001 | bafetinib -0.047 | [6] 0.004
